Results reported in paper doi:10.1101/740472.
No constants are given. Whether binding was seen depends on the method and setting. Binding seen in cells or lysates may run through a third protein. A yes stands for co-enrichment or nearness to the bait. Other partners may have been found. Sequences can lack the tags named with a protein.

Amino acid sequences for entries named in this document (tags omitted). Residues count along the entry.
UniProt Q14517, residues 22-4588: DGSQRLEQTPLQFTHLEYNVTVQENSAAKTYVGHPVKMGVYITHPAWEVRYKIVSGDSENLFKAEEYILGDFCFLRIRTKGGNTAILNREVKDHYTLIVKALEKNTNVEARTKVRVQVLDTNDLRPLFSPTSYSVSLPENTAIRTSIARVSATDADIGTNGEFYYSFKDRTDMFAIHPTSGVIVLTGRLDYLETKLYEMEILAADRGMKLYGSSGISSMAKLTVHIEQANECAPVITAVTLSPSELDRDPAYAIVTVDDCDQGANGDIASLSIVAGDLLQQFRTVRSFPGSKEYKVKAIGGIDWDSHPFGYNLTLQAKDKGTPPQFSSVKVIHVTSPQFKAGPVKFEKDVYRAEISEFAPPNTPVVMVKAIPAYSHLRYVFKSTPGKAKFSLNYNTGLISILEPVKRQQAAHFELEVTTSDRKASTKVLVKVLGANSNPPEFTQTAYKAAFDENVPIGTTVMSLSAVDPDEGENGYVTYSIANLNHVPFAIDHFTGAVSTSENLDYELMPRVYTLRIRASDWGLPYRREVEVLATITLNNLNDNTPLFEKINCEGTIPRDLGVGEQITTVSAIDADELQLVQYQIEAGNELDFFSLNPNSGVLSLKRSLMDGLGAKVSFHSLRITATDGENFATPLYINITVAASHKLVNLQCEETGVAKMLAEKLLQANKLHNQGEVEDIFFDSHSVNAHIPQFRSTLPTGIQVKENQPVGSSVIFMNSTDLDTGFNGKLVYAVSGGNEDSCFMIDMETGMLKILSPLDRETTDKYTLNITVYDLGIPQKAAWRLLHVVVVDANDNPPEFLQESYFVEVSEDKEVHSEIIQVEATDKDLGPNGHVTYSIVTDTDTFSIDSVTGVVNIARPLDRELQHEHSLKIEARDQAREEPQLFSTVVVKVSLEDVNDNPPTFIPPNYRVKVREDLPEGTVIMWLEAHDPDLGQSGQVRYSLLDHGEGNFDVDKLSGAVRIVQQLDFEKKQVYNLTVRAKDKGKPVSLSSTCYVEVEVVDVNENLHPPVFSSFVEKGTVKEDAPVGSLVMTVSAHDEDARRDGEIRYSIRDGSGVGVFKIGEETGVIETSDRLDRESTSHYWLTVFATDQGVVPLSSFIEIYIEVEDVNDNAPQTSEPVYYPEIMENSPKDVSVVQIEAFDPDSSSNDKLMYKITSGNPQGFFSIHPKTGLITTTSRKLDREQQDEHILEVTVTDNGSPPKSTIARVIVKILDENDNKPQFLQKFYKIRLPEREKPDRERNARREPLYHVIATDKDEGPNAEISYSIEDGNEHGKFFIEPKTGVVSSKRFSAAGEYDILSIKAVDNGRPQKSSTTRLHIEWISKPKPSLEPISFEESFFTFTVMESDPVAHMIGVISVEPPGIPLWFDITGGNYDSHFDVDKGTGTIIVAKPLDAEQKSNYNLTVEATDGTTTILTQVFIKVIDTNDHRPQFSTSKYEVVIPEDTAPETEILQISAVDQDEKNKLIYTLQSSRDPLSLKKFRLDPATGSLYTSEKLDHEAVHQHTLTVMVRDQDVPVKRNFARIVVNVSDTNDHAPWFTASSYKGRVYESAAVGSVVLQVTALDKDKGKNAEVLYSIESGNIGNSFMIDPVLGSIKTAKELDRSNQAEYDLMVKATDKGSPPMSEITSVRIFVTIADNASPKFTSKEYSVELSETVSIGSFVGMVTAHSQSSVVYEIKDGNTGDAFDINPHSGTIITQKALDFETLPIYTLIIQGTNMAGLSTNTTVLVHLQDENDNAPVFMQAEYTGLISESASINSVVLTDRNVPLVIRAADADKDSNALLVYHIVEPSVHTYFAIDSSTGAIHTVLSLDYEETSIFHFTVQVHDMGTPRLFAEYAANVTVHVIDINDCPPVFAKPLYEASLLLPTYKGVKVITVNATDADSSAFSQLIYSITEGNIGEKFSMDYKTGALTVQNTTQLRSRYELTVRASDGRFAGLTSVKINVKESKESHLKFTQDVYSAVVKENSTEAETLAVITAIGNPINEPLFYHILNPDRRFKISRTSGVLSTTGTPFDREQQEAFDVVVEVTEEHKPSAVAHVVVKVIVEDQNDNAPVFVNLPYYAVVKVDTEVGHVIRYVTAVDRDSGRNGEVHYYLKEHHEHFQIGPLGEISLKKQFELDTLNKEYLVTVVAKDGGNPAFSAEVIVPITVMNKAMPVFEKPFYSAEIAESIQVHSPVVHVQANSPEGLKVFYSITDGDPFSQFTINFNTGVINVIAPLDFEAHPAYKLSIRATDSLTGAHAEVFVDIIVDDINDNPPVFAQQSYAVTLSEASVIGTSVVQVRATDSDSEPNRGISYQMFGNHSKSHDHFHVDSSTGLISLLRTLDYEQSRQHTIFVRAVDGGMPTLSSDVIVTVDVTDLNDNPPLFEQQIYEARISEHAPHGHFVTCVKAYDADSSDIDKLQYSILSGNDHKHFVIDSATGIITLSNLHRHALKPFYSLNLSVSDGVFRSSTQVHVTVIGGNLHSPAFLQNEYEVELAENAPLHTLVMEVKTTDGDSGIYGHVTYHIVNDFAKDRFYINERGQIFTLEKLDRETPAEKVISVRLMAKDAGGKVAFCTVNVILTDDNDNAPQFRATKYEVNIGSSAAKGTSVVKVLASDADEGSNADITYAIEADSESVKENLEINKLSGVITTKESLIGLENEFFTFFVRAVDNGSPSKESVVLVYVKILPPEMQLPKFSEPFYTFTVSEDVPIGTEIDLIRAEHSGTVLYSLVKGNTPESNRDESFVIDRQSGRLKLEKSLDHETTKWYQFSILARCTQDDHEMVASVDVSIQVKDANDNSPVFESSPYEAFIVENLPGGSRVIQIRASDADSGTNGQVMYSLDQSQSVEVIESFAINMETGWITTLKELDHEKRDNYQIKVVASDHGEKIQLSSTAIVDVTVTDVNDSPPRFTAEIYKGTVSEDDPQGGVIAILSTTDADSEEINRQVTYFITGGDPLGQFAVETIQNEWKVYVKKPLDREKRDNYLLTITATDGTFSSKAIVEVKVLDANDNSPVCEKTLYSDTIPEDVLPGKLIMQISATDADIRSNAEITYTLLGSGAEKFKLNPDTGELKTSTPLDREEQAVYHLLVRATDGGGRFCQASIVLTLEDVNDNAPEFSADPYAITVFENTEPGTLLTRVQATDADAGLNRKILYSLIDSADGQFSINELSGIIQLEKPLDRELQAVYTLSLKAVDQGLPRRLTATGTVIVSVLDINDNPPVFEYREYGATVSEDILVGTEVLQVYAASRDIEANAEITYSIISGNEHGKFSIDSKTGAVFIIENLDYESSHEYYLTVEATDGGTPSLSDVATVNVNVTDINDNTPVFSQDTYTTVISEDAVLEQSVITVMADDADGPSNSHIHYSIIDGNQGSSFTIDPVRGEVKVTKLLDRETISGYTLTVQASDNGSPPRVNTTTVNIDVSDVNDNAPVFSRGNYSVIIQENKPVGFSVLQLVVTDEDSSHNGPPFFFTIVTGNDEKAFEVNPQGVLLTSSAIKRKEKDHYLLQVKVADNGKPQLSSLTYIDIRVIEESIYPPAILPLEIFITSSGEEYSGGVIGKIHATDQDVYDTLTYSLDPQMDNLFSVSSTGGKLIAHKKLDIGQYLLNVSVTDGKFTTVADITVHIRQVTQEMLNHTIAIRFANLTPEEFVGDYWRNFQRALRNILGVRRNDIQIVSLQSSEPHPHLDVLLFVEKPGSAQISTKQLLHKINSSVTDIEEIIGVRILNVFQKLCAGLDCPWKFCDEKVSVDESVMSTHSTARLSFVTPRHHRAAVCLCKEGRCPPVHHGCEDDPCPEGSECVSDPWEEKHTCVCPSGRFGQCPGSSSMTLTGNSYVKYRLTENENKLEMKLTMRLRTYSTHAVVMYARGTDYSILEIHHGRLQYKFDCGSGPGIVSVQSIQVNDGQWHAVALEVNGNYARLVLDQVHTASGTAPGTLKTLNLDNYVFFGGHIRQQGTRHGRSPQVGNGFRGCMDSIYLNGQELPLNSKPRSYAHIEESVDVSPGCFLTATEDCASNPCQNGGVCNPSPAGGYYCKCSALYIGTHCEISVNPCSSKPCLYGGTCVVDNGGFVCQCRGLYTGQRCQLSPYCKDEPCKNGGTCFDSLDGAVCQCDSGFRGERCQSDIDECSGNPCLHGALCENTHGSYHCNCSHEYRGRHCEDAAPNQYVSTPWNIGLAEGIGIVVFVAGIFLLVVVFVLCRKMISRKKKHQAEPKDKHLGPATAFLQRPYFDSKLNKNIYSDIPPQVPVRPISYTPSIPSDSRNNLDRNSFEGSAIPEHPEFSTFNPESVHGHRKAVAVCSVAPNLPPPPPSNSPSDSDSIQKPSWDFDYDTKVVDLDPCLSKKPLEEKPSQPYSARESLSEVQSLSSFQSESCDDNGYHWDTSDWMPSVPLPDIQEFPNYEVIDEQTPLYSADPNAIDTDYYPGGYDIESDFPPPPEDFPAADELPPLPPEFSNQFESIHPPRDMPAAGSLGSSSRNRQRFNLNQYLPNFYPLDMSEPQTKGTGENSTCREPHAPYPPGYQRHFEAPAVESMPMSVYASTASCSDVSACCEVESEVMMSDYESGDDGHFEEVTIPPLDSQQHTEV
UniProt O75015, residues 17-200: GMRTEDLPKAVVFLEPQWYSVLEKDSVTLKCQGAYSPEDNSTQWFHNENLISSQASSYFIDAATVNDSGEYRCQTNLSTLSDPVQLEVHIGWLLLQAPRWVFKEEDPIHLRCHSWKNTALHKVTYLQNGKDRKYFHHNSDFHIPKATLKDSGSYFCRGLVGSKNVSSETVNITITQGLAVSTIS

B1: MAGT1 (protein, UniProt Q9H0U3 30-335)
chain: QRKKEMVLSEKVSQLMEWTNKRPVIRMNGDKFRRLVKAPPRNYSVIVMFTALQLHRQCVVCKQADEEFQILANSWRYSSAFTNRIFFAMVDFDEGSDVFQMLNMNSAPTFINFPAKGKPKRGDTYELQVRGFSAEQIARWIADRTDVNIRVIRPPNYAGPLMLGLLLAVIGGLVYLRRSNMEFLFNKTGWAFAALCFVLAMTSGQMWNHIRGPPYAHKNPHTGHVNYIHGSSQAQFVAETHIVLLFNGGVTLGMVLLCEAATSDMDIGKRKIMCVAGIGLVVLFFSWMLSIFRSKYHGYPYSFLMS

Each molecule was assayed against T1, HA-tagged human ISLR (hISLR-HA) (human) (UniProt O14498) (assay: affinity purification with mass spectrometry).
T1 sequence: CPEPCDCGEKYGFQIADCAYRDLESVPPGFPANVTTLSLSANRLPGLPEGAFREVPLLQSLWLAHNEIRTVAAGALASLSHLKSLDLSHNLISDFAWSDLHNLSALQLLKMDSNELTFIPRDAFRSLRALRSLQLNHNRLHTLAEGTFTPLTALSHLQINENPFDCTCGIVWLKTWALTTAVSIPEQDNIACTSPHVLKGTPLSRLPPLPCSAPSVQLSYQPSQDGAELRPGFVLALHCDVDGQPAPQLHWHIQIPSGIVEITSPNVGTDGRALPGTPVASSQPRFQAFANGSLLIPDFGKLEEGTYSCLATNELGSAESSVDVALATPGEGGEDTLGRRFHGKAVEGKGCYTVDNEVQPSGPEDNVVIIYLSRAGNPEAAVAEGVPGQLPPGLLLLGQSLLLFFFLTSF

Row | Molecule | binding
1 | FAT1 (transmembrane protocadherin), endogenous (from UniProt Q14517 22-4588) | binds
2 | FCGR3B (from UniProt O75015 17-200) | binds
3 | B1 | binds
